The target of the experiment is Methyltransferase-like 3 (human (endogenous in T24)) (UniProt Q86U44). Description: co-IP; T24 cells, Pierce Co-Immunoprecipitation Kit; IP with anti-METTL3 antibody overnight at 4 °C, IgG as control; immunoprecipitated complex treated with RNase A or RNase inhibitor 5 min at 37 °C; western blot with anti-DGCR8; cells UV-cross-linked before the IP (legend of Fig. 4b). In general terms: A western blot detects proteins with antibodies after separation by electrophoresis.

Sequences of proteins named here, by UniProt entry; tags and fusion partners are left off.
UniProt Q86U44: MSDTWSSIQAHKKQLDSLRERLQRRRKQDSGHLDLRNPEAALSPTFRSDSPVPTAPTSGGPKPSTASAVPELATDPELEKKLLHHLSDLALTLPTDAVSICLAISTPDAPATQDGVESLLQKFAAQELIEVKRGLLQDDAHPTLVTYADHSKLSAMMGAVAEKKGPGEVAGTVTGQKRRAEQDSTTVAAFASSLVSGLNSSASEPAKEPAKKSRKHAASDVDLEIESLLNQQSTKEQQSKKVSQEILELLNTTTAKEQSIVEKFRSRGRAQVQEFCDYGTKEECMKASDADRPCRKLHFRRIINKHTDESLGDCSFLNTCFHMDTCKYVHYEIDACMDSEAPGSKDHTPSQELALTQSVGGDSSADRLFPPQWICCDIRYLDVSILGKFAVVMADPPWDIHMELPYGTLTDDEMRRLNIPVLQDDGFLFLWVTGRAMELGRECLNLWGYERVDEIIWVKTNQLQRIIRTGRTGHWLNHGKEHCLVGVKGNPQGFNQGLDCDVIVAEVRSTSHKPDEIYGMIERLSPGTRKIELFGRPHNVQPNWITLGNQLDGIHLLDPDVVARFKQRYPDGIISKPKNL

The record followed here is publication PMC6588935.

Results are given in words; binding and its absence hold for the method and conditions named. In cells and extracts the contact can be indirect. Some results given as binding are weak or reduced against the parent protein; the word gives no strength.

B1: microprocessor protein DGCR8 (DGCR8 microprocessor complex subunit) (protein, UniProt Q8WYQ5 1-773)
chain: METDESPSPLPCGPAGEAVMESRARPFQALPREQSPPPPLQTSSGAEVMDVGSGGDGQSELPAEDPFNFYGASLLSKGSFSKGRLLIDPNCSGHSPRTARHAPAVRKFSPDLKLLKDVKISVSFTESCRSKDRKVLYTGAERDVRAECGLLLSPVSGDVHACPFGGSVGDGVGIGGESADKKDEENELDQEKRVEYAVLDELEDFTDNLELDEEGAGGFTAKAIVQRDRVDEEALNFPYEDDFDNDVDALLEEGLCAPKKRRTEEKYGGDSDHPSDGETSVQPMMTKIKTVLKSRGRPPTEPLPDGWIMTFHNSGVPVYLHRESRVVTWSRPYFLGTGSIRKHDPPLSSIPCLHYKKMKDNEEREQSSDLTPSGDVSPVKPLSRSAELEFPLDEPDSMGADPGPPDEKDPLGAEAAPGALGQVKAKVEVCKDESVDLEEFRSYLEKRFDFEQVTVKKFRTWAERRQFNREMKRKQAESERPILPANQKLITLSVQDAPTKKEFVINPNGKSEVCILHEYMQRVLKVRPVYNFFECENPSEPFGASVTIDGVTYGSGTASSKKLAKNKAARATLEILIPDFVKQTSEEKPKDSEELEYFNHISIEDSRVYELTSKAGLLSPYQILHECLKRNHGMGDTSIKFEVVPGKNQKSEYVMACGKHTVRGWCKNKRVGKQLASQKILQLLHPHVKNWGSLLRMYGRESSKMVKQETSDKSVIELQQYAKKNKPNLHILSKLQEEMKRLAEEREETRKKPKMSIVASAQPGGEPLCTVDV
Turning to B1, the binding result is on record as “binds”.
